Measured values as given in paper doi:10.1101/059964.

Chains of the proteins cited; added tags and fusions are not shown.
UniProt Q86SE9: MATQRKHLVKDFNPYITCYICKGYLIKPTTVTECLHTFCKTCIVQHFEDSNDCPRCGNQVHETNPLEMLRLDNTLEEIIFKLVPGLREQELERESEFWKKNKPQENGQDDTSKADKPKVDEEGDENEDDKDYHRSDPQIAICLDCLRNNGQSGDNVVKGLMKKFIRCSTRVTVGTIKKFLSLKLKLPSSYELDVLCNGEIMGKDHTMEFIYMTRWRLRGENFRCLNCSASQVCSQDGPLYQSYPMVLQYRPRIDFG
UniProt Q99496: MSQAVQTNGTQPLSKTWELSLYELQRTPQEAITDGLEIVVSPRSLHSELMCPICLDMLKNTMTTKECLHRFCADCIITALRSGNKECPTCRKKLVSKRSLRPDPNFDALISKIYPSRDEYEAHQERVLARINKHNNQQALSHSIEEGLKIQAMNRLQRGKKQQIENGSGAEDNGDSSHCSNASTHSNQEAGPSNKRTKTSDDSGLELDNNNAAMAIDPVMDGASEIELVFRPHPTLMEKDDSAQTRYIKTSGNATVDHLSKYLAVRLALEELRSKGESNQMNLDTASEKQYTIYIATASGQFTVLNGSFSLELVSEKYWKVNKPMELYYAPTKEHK
UniProt Q06587: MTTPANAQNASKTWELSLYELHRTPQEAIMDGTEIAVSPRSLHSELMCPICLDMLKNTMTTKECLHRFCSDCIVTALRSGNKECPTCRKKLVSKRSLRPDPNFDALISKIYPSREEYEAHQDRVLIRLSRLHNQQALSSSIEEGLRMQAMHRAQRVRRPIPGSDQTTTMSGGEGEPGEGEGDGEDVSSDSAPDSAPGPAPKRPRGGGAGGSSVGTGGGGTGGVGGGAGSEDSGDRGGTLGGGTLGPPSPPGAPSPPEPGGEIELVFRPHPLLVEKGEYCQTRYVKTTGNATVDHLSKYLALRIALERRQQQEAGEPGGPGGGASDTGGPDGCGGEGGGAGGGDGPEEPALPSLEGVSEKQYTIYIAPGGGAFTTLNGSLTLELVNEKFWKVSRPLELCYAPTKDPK

Tests used:
Test in all cases: affinity purification with mass spectrometry
PCGF5 (human) = PCGF5 (human) (UniProt Q86SE9)
PCGF3 (human) = target: T1, PCGF3 (human) (UniProt Q3KNV8)
T1 sequence: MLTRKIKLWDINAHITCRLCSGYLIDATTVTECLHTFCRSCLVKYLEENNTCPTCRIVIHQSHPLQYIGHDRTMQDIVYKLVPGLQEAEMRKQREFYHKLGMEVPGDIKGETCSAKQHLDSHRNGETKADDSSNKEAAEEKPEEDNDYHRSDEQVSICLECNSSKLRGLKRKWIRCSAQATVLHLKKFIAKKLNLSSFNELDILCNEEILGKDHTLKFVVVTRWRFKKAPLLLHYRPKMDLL

RYBP (human) = target: T2, RYBP (human) (UniProt Q8N488)
T2 sequence: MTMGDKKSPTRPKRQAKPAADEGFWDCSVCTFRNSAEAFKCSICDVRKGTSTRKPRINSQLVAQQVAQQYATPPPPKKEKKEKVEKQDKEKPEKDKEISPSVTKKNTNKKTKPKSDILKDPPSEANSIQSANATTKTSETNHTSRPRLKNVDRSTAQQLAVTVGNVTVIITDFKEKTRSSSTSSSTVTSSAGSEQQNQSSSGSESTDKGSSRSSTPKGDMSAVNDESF

DCAF7 (human) = target: T3, DCAF7 (human) (UniProt P61962)
T3 sequence: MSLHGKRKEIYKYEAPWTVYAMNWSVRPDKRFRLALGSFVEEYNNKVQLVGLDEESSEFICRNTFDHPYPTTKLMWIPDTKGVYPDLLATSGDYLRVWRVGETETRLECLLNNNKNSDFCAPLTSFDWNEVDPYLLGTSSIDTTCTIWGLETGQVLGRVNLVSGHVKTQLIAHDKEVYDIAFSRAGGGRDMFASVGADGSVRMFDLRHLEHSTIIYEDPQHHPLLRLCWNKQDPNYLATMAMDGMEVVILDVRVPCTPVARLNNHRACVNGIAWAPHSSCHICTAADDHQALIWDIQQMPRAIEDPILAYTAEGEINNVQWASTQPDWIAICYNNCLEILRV

RING2 (human) = RING2 (human) (UniProt Q99496)
YAF2 (human) = target: T4, YAF2 (human) (UniProt Q8IY57)
T4 sequence: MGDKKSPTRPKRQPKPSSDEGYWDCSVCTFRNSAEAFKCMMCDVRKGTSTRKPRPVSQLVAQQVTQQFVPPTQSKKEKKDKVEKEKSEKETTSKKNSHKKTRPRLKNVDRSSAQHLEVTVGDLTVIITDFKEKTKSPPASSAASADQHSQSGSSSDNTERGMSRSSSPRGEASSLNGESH

RING1 (human) = RING1 (human) (UniProt Q06587)

Measured: binding

B1: AUTS2 (protein, UniProt Q8WXX7 1-1259)
chain: MDGPTRGHGLRKKRRSRSQRDRERRSRGGLGAGAAGGGGAGRTRALSLASSSGSDKEDNGKPPSSAPSRPRPPRRKRRESTSAEEDIIDGFAMTSFVTFEALEKDVALKPQERVEKRQTPLTKKKREALTNGLSFHSKKSRLSHPHHYSSDRENDRNLCQHLGKRKKMPKALRQLKPGQNSCRDSDSESASGESKGFHRSSSRERLSDSSAPSSLGTGYFCDSDSDQEEKASDASSEKLFNTVIVNKDPELGVGTLPEHDSQDAGPIVPKISGLERSQEKSQDCCKEPIFEPVVLKDPCPQVAQPIPQPQTEPQLRAPSPDPDLVQRTEAPPQPPPLSTQPPQGPPEAQLQPAPQPQVQRPPRPQSPTQLLHQNLPPVQAHPSAQSLSQPLSAYNSSSLSLNSLSSSRSSTPAKTQPAPPHISHHPSASPFPLSLPNHSPLHSFTPTLQPPAHSHHPNMFAPPTALPPPPPLTSGSLQVAGHPAGSTYSEQDILRQELNTRFLASQSADRGASLGPPPYLRTEFHQHQHQHQHTHQHTHQHTFTPFPHAIPPTAIMPTPAPPMFDKYPTKVDPFYRHSLFHSYPPAVSGIPPMIPPTGPFGSLQGAFQPKTSNPIDVAARPGTVPHTLLQKDPRLTDPFRPMLRKPGKWCAMHVHIAWQIYHHQQKVKKQMQSDPHKLDFGLKPEFLSRPPGPSLFGAIHHPHDLARPSTLFSAAGAAHPTGTPFGPPPHHSNFLNPAAHLEPFNRPSTFTGLAAVGGNAFGGLGNPSVTPNSMFGHKDGPSVQNFSNPHEPWNRLHRTPPSFPTPPPWLKPGELERSASAAAHDRDRDVDKRDSSVSKDDKERESVEKRHSSHPSPAPVLPVNALGHTRSSTEQIRAHLNTEAREKDKPKERERDHSESRKDLAADEHKAKEGHLPEKDGHGHEGRAAGEEAKQLARVPSPYVRTPVVESARPNSTSSREAEPRKGEPAYENPKKSSEVKVKEERKEDHDLPPEAPQTHRASEPPPPNSSSSVHPGPLASMPMTVGVTGIHPMNSISSLDRTRMMTPFMGISPLPGGERFPYPSFHWDPIRDPLRDPYRELDIHRRDPLGRDFLLRNDPLHRLSTPRLYEADRSFRDREPHDYSHHHHHHHHPLSVDPRREHERGGHLDERERLHMLREDYEHTRLHSVHPASLDGHLPHPSLITPGLPSMHYPRISPTAGNQNGLLNKTPPTAALSAPPPLISTLGGRPVSPRRTTPLSAEIRERPPSHTLKDIEAR
binds: all assays above

B2: FBRS (protein, UniProt Q9HAH7 1-460)
chain: MFEKYPGKMEGLFRHNPYTAFPPAVPGLPPGLPPAVSFGSLQGAFQPKSTNPELPPRLGPVPSGLSQKGTQIPDHFRPPLRKPGKWCAMHVRVAYMILRHQEKMKGDSHKLDFRNDLLPCLPGPYGALPPGQELSHPASLFTATGAVHAAANPFTAAPGAHGPFLSPSTHIDPFGRPTSFASLAALSNGAFGGLGSPTFNSGAVFAQKESPGAPPAFASPPDPWGRLHRSPLTFPAWVRPPEAARTPGSDKERPVERREPSITKEEKDRDLPFSRPQLRVSPATPKARAGEEGPRPTKESVRVKEERKEEAAAAAAAAAAAAAAAAAAATGPQGLHLLFERPRPPPFLGPSPPDRCAGFLEPTWLAAPPRLARPPRFYEAGEELTGPGAVAAARLYGLEPAHPLLYSRLAPPPPPAAAPGTPHLLSKTPPGALLGAPPPLVPAPRPSSPPRGPGPARADR
binds: all assays above

B3: PCGF6 (protein, UniProt Q9BYE7 1-350)
chain: MEGVAVVTAGSVGAAKTEGAAALPPPPPVSPPALTPAPAAGEEGPAPLSETGAPGCSGSRPPELEPERSLGRFRGRFEDEDEELEEEEELEEEEEEEEEDMSHFSLRLEGGRQDSEDEEERLINLSELTPYILCSICKGYLIDATTITECLHTFCKSCIVRHFYYSNRCPKCNIVVHQTQPLYNIRLDRQLQDIVYKLVINLEEREKKQMHDFYKERGLEVPKPAVPQPVPSSKGRSKKVLESVFRIPPELDMSLLLEFIGANEGTGHFKPLEKKFVRVSGEATIGHVEKFLRRKMGLDPACQVDIICGDHLLEQYQTLREIRRAIGDAAMQDGLLVLHYGLVVSPLKIT
binds: RYBP (human) | RING2 (human) | YAF2 (human)

B4: PCGF2 (protein, UniProt P35227 1-344)
chain: MHRTTRIKITELNPHLMCALCGGYFIDATTIVECLHSFCKTCIVRYLETNKYCPMCDVQVHKTRPLLSIRSDKTLQDIVYKLVPGLFKDEMKRRRDFYAAYPLTEVPNGSNEDRGEVLEQEKGALSDDEIVSLSIEFYEGARDRDEKKGPLENGDGDKEKTGVRFLRCPAAMTVMHLAKFLRNKMDVPSKYKVEVLYEDEPLKEYYTLMDIAYIYPWRRNGPLPLKYRVQPACKRLTLATVPTPSEGTNTSGASECESVSDKAPSPATLPATSSSLPSPATPSHGSPSSHGPPATHPTSPTPPSTASGATTAANGGSLNCLQTPSSTSRGRKMTVNGAPVPPLT
binds: RYBP (human) | RING2 (human) | YAF2 (human) | RING1 (human)

B5: RYBP (protein, UniProt Q8N488 1-228)
chain: MTMGDKKSPTRPKRQAKPAADEGFWDCSVCTFRNSAEAFKCSICDVRKGTSTRKPRINSQLVAQQVAQQYATPPPPKKEKKEKVEKQDKEKPEKDKEISPSVTKKNTNKKTKPKSDILKDPPSEANSIQSANATTKTSETNHTSRPRLKNVDRSTAQQLAVTVGNVTVIITDFKEKTRSSSTSSSTVTSSAGSEQQNQSSSGSESTDKGSSRSSTPKGDMSAVNDESF
binds: RING2 (human) | RING1 (human)
no binding: YAF2 (human)

B6: YAF2 (protein, UniProt Q8IY57 1-180)
chain: MGDKKSPTRPKRQPKPSSDEGYWDCSVCTFRNSAEAFKCMMCDVRKGTSTRKPRPVSQLVAQQVTQQFVPPTQSKKEKKDKVEKEKSEKETTSKKNSHKKTRPRLKNVDRSSAQHLEVTVGDLTVIITDFKEKTKSPPASSAASADQHSQSGSSSDNTERGMSRSSSPRGEASSLNGESH
binds: RING2 (human) | RING1 (human)

B7: SWAHA (protein, UniProt Q2M3V2 18-549)
chain: AVLGFLQEHGGKVRNSELLSRFKPLLDAGDPRGRAARRDRFKQFVNNVAVVKELDGVKFVVLRKKPRPPEPEPAPFGPPGAAAQPSKPTSTVLPRSASAPGAPPLVRVPRPVEPPGDLGLPTEPQDTPGGPASEPAQPPGERSADPPLPALELAQATERPSADAAPPPRAPSEAASPCSDPPDAEPGPGAAKGPPQQKPCMLPVRCVPAPATLRLRAEEPGLRRQLSEEPSPRSSPLLLRRLSVEESGLGLGLGPGRSPHLRRLSRAGPRLLSPDAEELPAAPPPSAVPLEPSEHEWLVRTAGGRWTHQLHGLLLRDRGLAAKRDFMSGFTALHWAAKSGDGEMALQLVEVARRSGAPVDVNARSHGGYTPLHLAALHGHEDAAVLLVVRLGAQVHVRDHSGRRAYQYLRPGSSYALRRLLGDPGLRGTTEPDATGGGSGSLAARRPVQVAATILSSTTSAFLGVLADDLMLQDLARGLKKSSSFSKFLSASPMAPRKKTKIRGGLPAFSEISRRPTPGPLAGLVPSLPPTT
binds: DCAF7 (human)

B8: SWAHC (protein, UniProt Q53LP3 1-525)
chain: MEGPAEWGPEAALGPEAVLRFLAERGGRALHAELVQHFRGALGGEPEQRARARAHFKELVNAVATVRVDPADGAKYVHLKKRFCEGPSEPSGDPPRIQVTAEPEAPDGPAGPEARDRLPDAAAPESLPGQGRELGEGEPPAPAHWPPLSAGARRKNSRRDVQPLPRTPAPGPSEDLELPPHGCEEADRGSSLVGATAQRPARQNLRDLVMGSSPQLKRSVCPGGSSPGSSSGGGRGRGGGDSDSASVASSSAEEESSGGGSVTLDPLEHAWMLSASDGKWDSLEGLLTCEPGLLVKRDFITGFTCLHWAAKHGRQELLAMLVNFANKHQLPVNIDARTSGGYTALHLAAMHGHVEVVKLLVGAYDADVDIRDYSGKKASQYLSRSIAEEIKNLVGALDEGDGESAAGSGGGRWRLSKVLPSHLITYKLSHALEDGGDHHHHHHSAEGWVGGKAKDPGRKASGSSSGRIKPRLNKIRFRTQIVHTTPSFRDPEQPLEGRGEEGVGEERPVKGHSPFTLRPKSNVFG
binds: DCAF7 (human)

No constants are given. Whether binding was seen depends on the method and setting. Binding seen in cells or lysates may run through a third protein. A yes stands for co-enrichment or nearness to the bait. Other partners may have been found. For some of these results: A no says only that the protein was not detected with the bait.
